{"source": "PubChem BioAssay AID292", "about": "(DTP/NCI, 2004)", "tested_on": "B6C3F1 mice, ip Sarcoma M5076, median survival T/C", "test": "NCI In Vivo Anticancer Drug Screen. Data for tumor model Sarcoma M5076 (intraperitoneal) in B6C3F1 mice", "conditions": "T/C endpoint: median survival time, higher T/C = longer survival", "in_short": "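Transplantable tumour in mice; compound-treated vs vehicle-treated groups. Read-out: survival. Value = treated/control ratio.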", "key": {"[1]": {"conditions": "dose: 50.0 mg/kg/injection, schedule: Q04DX004 (ip), vehicle: water"}, "[2]": {"conditions": "dose: 100.0 mg/kg/injection, schedule: Q01DX009 (ip), vehicle: water"}, "[3]": {"conditions": "dose: 50.0 mg/kg/injection, schedule: Q04DX004 (ip), vehicle: Klucel (hydroxypropylcellulose) (HPC)"}, "[4]": {"conditions": "dose: 100.0 mg/kg/injection, schedule: Q04DX004 (ip), vehicle: Klucel (hydroxypropylcellulose) (HPC)"}, "[5]": {"conditions": "dose: 200.0 mg/kg/injection, schedule: Q04DX004 (ip), vehicle: Klucel (hydroxypropylcellulose) (HPC)"}}, "note": "The list is a part of this screen's results and no random one: it gathers tests that were run many times, whatever their T/C, doses with no T/C, and many T/C values between a quarter and a half above the control. Other doses and runs of a compound stand elsewhere. T/C: endpoint of the treated group in % of that of the vehicle group. Some doses have a count of surviving animals in place of a T/C: the source holds a T/C of zero for them, seemingly a mark for toxic or unscored doses. Some survivor counts are full or nearly so, which does not show that the dose was tolerated: the source hardly ever lists a survival T/C far under the control, and the zero likely stands for such cases as well. Counts of survivors are from the toxicity check (mostly the fifth day) where no day follows; animals may have died later. Schedules are NCI's codes, read here as Q, the interval in days (D) or hours (H), X, the number of doses. Some doses were run more than once; the results are listed from low to high. For survival time, this PubChem deposit counts one and a half times the control or more as active, and values a quarter to a half above the control carry no call in these data; other NCI protocols may use other cut-offs. Some T/C values carry the count of animals alive at the toxicity check (mostly the fifth day); without a count, all were alive then.", "data": [{"smiles": "Nc1n[n+](-c2ccccc2)no1", "values": [{"measurement": "T/C", "setting": "dose: 6.25 mg/kg/injection, schedule: Q01DX009 (ip), vehicle: water", "result": "126 and 127 % of control [9 of 10 alive on day 14]"}, {"measurement": "T/C", "setting": "dose: 6.25 mg/kg/injection, schedule: Q04DX004 (ip), vehicle: water", "result": "126 % of control"}, {"measurement": "T/C", "setting": "dose: 12.5 mg/kg/injection, schedule: Q01DX009 (ip), vehicle: water", "result": "135 % of control"}, {"measurement": "T/C", "setting": "dose: 12.5 mg/kg/injection, schedule: Q04DX004 (ip), vehicle: water", "result": "126 and 129 % of control"}, {"measurement": "T/C", "setting": "dose: 25.0 mg/kg/injection, schedule: Q01DX009 (ip), vehicle: water", "result": "144 % of control [8 of 10 alive on day 14]"}, {"measurement": "T/C", "setting": "dose: 25.0 mg/kg/injection, schedule: Q04DX004 (ip), vehicle: water", "result": "127, 133, 147 % of control"}, {"measurement": "T/C", "setting": "[1]", "result": "137 and 140 % of control [8 of 10 alive on day 14]"}, {"measurement": "survivor count", "setting": "[1]", "result": "6 of 10 on day 14"}, {"measurement": "survivor count", "setting": "[2]", "result": "0 of 10 on day 14"}, {"measurement": "survivor count", "setting": "dose: 100.0 mg/kg/injection, schedule: Q04DX004 (ip), vehicle: water", "result": "0 of 10 on day 14"}]}, {"smiles": "CCOC(=O)c1cn(C)c2c1C(=O)C(C(=O)OCC)CC(=O)N2", "note": "(stereo not drawn)", "values": [{"measurement": "survivor count", "setting": "dose: 500.0 mg/kg/injection, schedule: Q04DX004 (ip), vehicle: saline + Tween-80 + alcohol", "result": "10 of 10 on day 14"}]}, {"smiles": "CN(C)CCN1C(=O)c2cccc3cc(N)cc(c23)C1=O", "values": [{"measurement": "T/C", "setting": "dose: 21.6 mg/kg/injection, schedule: Q04DX004 (ip), vehicle: acid diluted with saline", "result": "139 % of control"}, {"measurement": "T/C", "setting": "dose: 36.0 mg/kg/injection, schedule: Q04DX004 (ip), vehicle: acid diluted with saline", "result": "128 % of control"}, {"measurement": "survivor count", "setting": "dose: 60.0 mg/kg/injection, schedule: Q04DX004 (ip), vehicle: acid diluted with saline", "result": "6 of 10 on day 14 and 8 of 10 on day 14"}, {"measurement": "survivor count", "setting": "dose: 100.0 mg/kg/injection, schedule: Q04DX004 (ip), vehicle: acid diluted with saline", "result": "0 of 10 on day 14"}]}, {"smiles": "O=[N+]([O-])c1ccc(C=C2C=CN(CCO)C=C2)cc1", "values": [{"measurement": "survivor count", "setting": "dose: 200.0 mg/kg/injection, schedule: Q04DX004 (ip), vehicle: saline with Tween-80", "result": "0 of 10 on day 14"}, {"measurement": "survivor count", "setting": "dose: 400.0 mg/kg/injection, schedule: Q04DX004 (ip), vehicle: saline with Tween-80", "result": "0 of 10 on day 14"}]}, {"smiles": "CC(C)N1C(=O)N(Cl)C2C1N(Cl)C(=O)N2Cl", "note": "(stereo not drawn)", "values": [{"measurement": "survivor count", "setting": "dose: 100.0 mg/kg/injection, schedule: Q04DX004 (ip), vehicle: saline", "result": "3 of 10 on day 14"}, {"measurement": "survivor count", "setting": "dose: 200.0 mg/kg/injection, schedule: Q04DX004 (ip), vehicle: saline", "result": "0 of 10 on day 14"}, {"measurement": "survivor count", "setting": "dose: 400.0 mg/kg/injection, schedule: Q04DX004 (ip), vehicle: saline", "result": "0 of 10 on day 14"}, {"measurement": "survivor count", "setting": "dose: 800.0 mg/kg/injection, schedule: Q04DX004 (ip), vehicle: saline", "result": "0 of 10 on day 14"}]}, {"smiles": "O=c1c2ccccc2nc(-c2ccccc2)n1-c1nccs1", "values": [{"measurement": "survivor count", "setting": "dose: 50.0 mg/kg/injection, schedule: Q04DX004 (ip), vehicle: saline with Tween-80", "result": "10 of 10 on day 14"}, {"measurement": "survivor count", "setting": "dose: 100.0 mg/kg/injection, schedule: Q04DX004 (ip), vehicle: saline with Tween-80", "result": "10 of 10 on day 14"}]}, {"smiles": "N[C@@H](Cc1ccc(N(CCCl)CCCl)cc1)C(=O)O", "values": [{"measurement": "T/C", "setting": "dose: 1.0 mg/kg/injection, schedule: Q04DX004 (ip), vehicle: saline with Tween-80, evaluated on day 60", "result": "143 % of control"}, {"measurement": "T/C", "setting": "dose: 1.0 mg/kg/injection, schedule: Q04DX004 (ip), vehicle: saline with Tween-80, evaluated on day 69", "result": "138 % of control"}, {"measurement": "T/C", "setting": "dose: 1.0 mg/kg/injection, schedule: Q04DX004 (ip), vehicle: saline", "result": "135 % of control"}, {"measurement": "T/C", "setting": "dose: 2.0 mg/kg/injection, schedule: Q04DX004 (ip), vehicle: saline with Tween-80", "result": "140 % of control"}, {"measurement": "survivor count", "setting": "dose: 8.0 mg/kg/injection, schedule: Q04DX004 (ip), vehicle: saline with Tween-80", "result": "9 of 9 on day 14"}]}, {"smiles": "NC(N)=NS(=O)(=O)c1ccc(NCc2c3ccccc3nc3ccccc23)cc1", "values": [{"measurement": "T/C", "setting": "[3]", "result": "128 % of control"}, {"measurement": "T/C", "setting": "[4]", "result": "149 % of control"}, {"measurement": "T/C", "setting": "[5]", "result": "128 % of control [9 of 10 alive on day 14]"}]}, {"smiles": "O=S(=O)(O)O", "values": [{"measurement": "survivor count", "setting": "dose: 67.0 mg/kg/injection, schedule: Q01DX009 (ip), vehicle: water", "result": "10 of 10"}, {"measurement": "survivor count", "setting": "[2]", "result": "10 of 10"}]}, {"smiles": "Cc1nc2cc3c(cc2n2cccc12)oc1ccccc13", "values": [{"measurement": "survivor count", "setting": "dose: 25.0 mg/kg/injection, schedule: Q04DX004 (ip), vehicle: Klucel (hydroxypropylcellulose) (HPC)", "result": "10 of 10 on day 14"}, {"measurement": "survivor count", "setting": "[3]", "result": "10 of 10 on day 14"}, {"measurement": "survivor count", "setting": "[4]", "result": "10 of 10 on day 14"}, {"measurement": "survivor count", "setting": "[5]", "result": "8 of 10 on day 14"}, {"measurement": "survivor count", "setting": "dose: 400.0 mg/kg/injection, schedule: Q04DX004 (ip), vehicle: Klucel (hydroxypropylcellulose) (HPC)", "result": "6 of 10 on day 14"}]}]}
